Our source for the normalised cell viability values is the supplement of paper PMC8285479.

± gives the standard deviation of the averaged measurements. Most of the lowest values are listed elsewhere, so they are rarer here than in the full data.

For this experiment, the system named is NCI-H1944. Kind of experiment: normalised cell viability (NPI; 0 = phenylarsine oxide control, 1 = DMSO control) (fraction of DMSO control); NCI-H1944 is a non-small cell lung cancer line; higher = more viable cells (less compound toxicity). As to conditions: 6 days.
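Further: CTB read-out in 384-well plates, triplicate wells, NPI normalised per plate against 1 µM phenylarsine oxide (0) and 0.1% DMSO (1) controls.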

For the compound `Cc1c(C(=O)NN2CCCCC2)nn(-c2ccc(Cl)cc2Cl)c1-c1ccc(I)cc1`, the normalised cell viability is, setting by setting: (glucocorticoid arm: hydrocortisone 2.75 uM co-treatment, compound 1 µM) 0.9953 ± 0.0045; (glucocorticoid arm: hydrocortisone 2.75 uM co-treatment, compound 5 µM) 1.001 ± 0.0082; (glucocorticoid arm: hydrocortisone 2.75 uM pre-treated 2 days and continued, compound 1 µM) 0.995 ± 0.025; (glucocorticoid arm: hydrocortisone 2.75 uM pre-treated 2 days and continued, compound 5 µM) 0.976 ± 0.021; (glucocorticoid arm: vehicle, compound 1 µM) 0.9997 ± 0.0093; (glucocorticoid arm: vehicle, compound 5 µM) 1.007 ± 0.0058.
